From publication PMC8973849

Chains of the proteins cited; added tags and fusions are not shown.
UniProt P10630: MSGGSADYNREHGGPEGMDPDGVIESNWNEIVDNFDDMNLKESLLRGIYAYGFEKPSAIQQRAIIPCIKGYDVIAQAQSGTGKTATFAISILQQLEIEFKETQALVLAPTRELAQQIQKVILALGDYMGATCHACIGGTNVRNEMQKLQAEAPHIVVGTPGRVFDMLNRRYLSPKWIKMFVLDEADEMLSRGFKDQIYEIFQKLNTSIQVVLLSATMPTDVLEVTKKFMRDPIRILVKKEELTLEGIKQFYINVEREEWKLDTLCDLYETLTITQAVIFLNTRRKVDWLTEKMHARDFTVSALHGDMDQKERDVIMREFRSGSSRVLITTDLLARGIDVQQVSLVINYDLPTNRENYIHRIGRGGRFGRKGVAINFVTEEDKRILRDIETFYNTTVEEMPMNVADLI
UniProt Q61037: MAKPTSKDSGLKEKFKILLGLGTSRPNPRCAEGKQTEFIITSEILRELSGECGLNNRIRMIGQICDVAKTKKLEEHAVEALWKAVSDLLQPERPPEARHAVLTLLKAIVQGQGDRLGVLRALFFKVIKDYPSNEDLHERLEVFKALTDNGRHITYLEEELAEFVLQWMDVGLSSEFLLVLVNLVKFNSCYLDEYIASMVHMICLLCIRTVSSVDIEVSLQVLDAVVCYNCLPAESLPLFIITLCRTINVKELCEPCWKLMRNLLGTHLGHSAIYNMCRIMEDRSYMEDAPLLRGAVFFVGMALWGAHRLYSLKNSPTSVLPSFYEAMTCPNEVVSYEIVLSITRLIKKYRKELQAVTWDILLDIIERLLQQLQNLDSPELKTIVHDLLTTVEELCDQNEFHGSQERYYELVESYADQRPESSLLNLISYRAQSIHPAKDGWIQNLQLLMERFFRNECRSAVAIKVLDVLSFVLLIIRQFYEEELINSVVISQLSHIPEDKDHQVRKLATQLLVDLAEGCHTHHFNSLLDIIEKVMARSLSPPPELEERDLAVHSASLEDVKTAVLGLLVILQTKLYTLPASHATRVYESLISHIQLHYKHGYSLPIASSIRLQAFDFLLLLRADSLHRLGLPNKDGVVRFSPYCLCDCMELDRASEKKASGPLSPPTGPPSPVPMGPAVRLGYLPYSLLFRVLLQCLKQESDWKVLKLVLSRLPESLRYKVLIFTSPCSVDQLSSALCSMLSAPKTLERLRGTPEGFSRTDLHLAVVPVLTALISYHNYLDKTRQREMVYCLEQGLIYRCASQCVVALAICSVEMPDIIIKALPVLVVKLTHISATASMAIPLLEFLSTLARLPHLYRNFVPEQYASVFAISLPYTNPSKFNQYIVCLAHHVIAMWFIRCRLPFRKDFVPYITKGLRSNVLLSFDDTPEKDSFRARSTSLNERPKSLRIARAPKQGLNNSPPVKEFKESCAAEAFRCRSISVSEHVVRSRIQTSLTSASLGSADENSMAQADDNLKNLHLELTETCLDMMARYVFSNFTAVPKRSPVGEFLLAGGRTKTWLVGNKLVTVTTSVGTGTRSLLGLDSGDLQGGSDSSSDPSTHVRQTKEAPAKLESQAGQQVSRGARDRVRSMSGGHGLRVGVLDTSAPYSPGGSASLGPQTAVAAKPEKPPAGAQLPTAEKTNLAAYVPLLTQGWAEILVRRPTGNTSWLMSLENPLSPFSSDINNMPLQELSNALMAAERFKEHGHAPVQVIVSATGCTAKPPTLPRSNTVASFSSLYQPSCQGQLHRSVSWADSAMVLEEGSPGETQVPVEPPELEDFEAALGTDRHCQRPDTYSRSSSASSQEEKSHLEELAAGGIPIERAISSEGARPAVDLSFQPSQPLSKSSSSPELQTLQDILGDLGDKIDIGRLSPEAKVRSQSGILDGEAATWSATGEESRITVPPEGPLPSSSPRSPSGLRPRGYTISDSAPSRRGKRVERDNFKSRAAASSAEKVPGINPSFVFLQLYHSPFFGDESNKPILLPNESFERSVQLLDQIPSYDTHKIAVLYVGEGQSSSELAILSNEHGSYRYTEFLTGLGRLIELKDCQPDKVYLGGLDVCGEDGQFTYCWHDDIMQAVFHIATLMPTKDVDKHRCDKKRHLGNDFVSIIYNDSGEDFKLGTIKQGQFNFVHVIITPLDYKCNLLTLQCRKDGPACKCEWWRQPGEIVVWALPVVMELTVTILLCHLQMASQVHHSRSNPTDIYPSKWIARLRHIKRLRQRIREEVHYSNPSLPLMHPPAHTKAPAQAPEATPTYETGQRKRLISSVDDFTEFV
UniProt Q9EPU0: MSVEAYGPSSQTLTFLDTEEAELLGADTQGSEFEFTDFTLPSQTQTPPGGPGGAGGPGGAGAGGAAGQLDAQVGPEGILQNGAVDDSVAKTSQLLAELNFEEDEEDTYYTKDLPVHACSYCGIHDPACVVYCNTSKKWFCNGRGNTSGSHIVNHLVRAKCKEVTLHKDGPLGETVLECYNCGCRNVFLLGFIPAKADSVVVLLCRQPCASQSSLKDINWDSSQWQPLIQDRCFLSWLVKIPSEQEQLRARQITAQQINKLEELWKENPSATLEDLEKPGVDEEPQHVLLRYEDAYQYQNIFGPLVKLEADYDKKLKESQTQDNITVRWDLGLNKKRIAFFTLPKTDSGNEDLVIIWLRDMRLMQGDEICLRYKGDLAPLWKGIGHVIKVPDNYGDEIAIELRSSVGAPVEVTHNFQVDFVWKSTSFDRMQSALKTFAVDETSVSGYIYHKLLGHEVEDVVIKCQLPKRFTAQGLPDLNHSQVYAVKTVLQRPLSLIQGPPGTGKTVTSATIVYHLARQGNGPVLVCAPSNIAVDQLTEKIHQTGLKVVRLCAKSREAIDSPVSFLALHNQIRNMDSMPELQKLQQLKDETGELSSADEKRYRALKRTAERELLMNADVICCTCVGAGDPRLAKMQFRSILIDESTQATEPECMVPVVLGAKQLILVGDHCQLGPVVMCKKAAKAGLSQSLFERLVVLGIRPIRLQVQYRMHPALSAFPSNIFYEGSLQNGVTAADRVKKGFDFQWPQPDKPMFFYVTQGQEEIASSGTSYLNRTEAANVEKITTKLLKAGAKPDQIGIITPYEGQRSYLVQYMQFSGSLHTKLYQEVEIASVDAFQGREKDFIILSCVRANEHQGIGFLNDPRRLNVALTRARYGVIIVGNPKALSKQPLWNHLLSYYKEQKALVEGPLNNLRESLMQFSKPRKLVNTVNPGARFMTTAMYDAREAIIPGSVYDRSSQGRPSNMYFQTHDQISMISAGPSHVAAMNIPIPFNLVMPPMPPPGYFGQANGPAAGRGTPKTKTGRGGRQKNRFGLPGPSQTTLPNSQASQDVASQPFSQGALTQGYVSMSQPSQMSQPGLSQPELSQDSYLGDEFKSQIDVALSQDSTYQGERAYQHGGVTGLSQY
UniProt P61406: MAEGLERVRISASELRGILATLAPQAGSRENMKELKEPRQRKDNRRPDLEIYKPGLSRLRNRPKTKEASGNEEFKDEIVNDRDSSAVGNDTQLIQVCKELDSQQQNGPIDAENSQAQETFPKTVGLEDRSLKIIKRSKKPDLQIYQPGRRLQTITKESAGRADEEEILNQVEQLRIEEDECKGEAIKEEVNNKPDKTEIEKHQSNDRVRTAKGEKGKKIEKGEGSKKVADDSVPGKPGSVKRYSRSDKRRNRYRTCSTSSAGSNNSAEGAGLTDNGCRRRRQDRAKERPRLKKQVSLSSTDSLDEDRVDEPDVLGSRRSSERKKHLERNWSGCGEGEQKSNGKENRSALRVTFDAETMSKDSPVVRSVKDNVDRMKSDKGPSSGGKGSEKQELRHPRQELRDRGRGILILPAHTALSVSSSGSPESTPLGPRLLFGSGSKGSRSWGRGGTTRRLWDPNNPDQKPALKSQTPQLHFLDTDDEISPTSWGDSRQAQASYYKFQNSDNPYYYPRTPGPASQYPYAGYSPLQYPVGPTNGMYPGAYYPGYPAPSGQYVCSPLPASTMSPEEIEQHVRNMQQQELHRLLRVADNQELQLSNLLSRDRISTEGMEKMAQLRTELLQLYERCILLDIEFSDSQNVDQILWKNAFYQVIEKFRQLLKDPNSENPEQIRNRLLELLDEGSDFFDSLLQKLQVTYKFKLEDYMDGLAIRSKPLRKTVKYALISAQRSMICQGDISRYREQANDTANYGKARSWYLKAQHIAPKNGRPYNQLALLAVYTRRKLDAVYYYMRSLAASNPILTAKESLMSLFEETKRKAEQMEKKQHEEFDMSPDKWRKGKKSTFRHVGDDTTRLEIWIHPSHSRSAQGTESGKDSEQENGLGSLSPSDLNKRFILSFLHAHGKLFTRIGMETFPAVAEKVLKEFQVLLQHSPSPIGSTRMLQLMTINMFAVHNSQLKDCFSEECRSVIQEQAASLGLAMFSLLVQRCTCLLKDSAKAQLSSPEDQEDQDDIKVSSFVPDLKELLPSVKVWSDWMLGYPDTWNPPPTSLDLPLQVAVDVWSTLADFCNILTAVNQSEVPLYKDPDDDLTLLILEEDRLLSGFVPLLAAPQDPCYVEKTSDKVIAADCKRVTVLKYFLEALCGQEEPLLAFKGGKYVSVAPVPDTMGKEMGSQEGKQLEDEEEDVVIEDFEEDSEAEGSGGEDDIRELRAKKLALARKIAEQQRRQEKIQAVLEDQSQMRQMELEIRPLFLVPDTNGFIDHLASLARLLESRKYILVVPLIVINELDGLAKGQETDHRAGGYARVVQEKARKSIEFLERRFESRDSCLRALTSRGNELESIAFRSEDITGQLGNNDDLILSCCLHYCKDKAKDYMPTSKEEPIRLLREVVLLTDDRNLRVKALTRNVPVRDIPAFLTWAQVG
UniProt Q8CJG0: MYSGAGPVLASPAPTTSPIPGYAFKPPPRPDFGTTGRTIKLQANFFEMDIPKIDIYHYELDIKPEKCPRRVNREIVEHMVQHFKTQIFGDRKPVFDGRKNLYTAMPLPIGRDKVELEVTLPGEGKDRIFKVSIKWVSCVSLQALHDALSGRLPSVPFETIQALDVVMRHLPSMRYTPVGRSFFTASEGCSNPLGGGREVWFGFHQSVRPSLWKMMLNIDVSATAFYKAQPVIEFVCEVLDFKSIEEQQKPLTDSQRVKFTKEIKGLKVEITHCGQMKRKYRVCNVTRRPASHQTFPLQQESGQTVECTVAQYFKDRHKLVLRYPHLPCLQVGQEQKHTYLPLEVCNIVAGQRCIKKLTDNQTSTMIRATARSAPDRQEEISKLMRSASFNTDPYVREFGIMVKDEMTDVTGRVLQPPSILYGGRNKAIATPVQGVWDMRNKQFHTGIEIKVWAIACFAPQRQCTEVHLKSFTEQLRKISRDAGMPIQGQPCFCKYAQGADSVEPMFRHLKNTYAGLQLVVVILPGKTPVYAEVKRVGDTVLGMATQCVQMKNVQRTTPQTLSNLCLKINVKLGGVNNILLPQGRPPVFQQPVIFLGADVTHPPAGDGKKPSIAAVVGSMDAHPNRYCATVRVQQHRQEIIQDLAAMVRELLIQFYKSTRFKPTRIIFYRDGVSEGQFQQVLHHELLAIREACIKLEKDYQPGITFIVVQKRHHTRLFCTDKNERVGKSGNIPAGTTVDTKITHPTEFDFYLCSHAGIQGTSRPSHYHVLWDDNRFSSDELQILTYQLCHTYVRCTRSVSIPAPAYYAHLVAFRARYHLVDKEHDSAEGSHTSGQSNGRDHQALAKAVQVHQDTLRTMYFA
UniProt P60843: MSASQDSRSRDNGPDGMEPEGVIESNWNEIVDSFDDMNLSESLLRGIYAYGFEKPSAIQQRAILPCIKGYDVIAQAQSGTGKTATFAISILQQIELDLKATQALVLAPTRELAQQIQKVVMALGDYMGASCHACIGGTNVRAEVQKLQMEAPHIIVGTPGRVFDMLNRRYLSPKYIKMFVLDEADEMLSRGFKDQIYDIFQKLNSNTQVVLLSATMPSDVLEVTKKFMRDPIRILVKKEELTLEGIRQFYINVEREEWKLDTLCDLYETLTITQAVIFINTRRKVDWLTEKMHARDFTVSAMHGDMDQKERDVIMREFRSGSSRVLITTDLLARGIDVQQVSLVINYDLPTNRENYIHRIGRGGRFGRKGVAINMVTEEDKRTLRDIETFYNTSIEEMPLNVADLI

What was measured:
[1] = biological target: Flag-tagged eIF4A2^FL (mouse) (UniProt P10630); test: affinity purification with mass spectrometry; anti-Flag M2 cross-linked (DMP) to Dynabeads; 1 mg lysate of Eif4a2 KO ESCs expressing only Flag-eIF4A2^FL or Flag-eIF4A2^PTC, after 1 µM epoxomicin for 3 h; 2 h at 4°C; compared with Flag IP from empty vector cells; label-free quantification, 5% FDR; not told whether nucleic acids were removed
[2] = biological target: Flag-tagged eIF4A2^PTC (mouse); test: as above

Molecule	binding [1]	binding [2]
PUM1 (from UniProt Q80U78 1-1189)	binds	
TSC2 (from UniProt Q61037 1-1814)	no binding	
UPF1 (from UniProt Q9EPU0 1-1124)	binds	
RAF1 (from UniProt Q99N57 1-648)	no binding	
SMG6 (from UniProt P61406 1-1418)	binds	
AGO2 (from UniProt Q8CJG0 1-860)	binds	
eIF4A1 (from UniProt P60843 1-406)	no binding	
TRIM71 (protein, UniProt Q1PSW8 1-855) MASFPETDFQICLLCKEMCGSPAPLSSNSSASSSSSQTSTSSAGGGGPGAAARRLHVLPCLHAFCRPCLEAHRLPAPGGAGPAEALKLRCPVCDQKVVLAEAAGMDALPSSAFLLSNLLDAVVATAEEPPPKNGRAGGGPGGAGGHSNHRHHAHHPAQRAAAPAPQPPPGPAASPGSLLMRRPHGCSSCDEGNAASSRCLDCQEHLCDNCVRAHQRVRLTKDHYIERGPPGPAAASAAQQLGLGPPFAGAPFSILSVFPERLGFCQHHDDEVLHLYCDTCSVPICRECTLGRHGGHSFAYLQDALQDSRALTIQLLADAQQGRQALQLSIEQAQTVAEQVEMKAKVVQSEVKAVTARHKKALEDRECELLWKVEKIRQVKAKSLFLQVEKLRQSLSKLESTISAVQQVLEEGRALDILLARDRMLAQVQELKTIRGLLQPQEDDRIMFTPPDQALYLALKSIGFVSSGAFAPLTKATGDGIKRALQGKVASFTVMGYDHDGEPRHSGGDLMSVVVLGPDGNLFGAEVSDQQNGTYIVSYRPQLEGEHLVSVTLYNQHIENSPFKVVVKSGRSYVGIGLPGLSFGSEGDGEGKLCRPWGVSVDKEGFIIVADRSNNRIQVFKPCGSFHHKFGTLGSRPGQFDRPAGVACDASRRIIVADKDNHRIQIFTFEGQFLLKFGEKGTKNGQFNYPWDVAVNSEGKILVSDTRNHRIQLFGPDGVFLNKYGFEGSLWKHFDSPRGVAFNNEGHLVVTDFNNHRLLVIHPDCQSARFLGSEGSGNGQFLRPQGVAVDQEGRIIVADSRNHRVQMFEANGSFLCKFGAQGSGFGQMDRPSGIAVTPDGLIVVVDFGNNRILIF	binds	binds
SMG7 (protein, UniProt Q5RJH6 1-1138) MSLQSAQYLRQAEVLKAEMTDSKLGPAEVWTSRQALQDLYQKMLVTDLEYALDKKVEQDLWNHAFKNQITTLQGQAKNRANPNRSEVQANLSLFLEAASGFYTQLLQELCTVFNVDLPCRVKSSQLGIISNKQTHSSTIVKPQSSSCSYICQHCLVHLGDIARYRNQTSQAESYYRHAAQLVPSNGQPYNQLAILASSKGDHLTTIFYYCRSIAVKFPFPAASTNLQKALSKALESRDELKTKWGVSDFIKAFIKFHGHVYLSKSLEKLSPLREKLEEQFKRLLFQKAFNSQQLVHVTVINLFQLHHLRDFSNETEQHSYSQDEQLCWTQLLALFMSFLGILCKCPLQNDSQESNNAYPLPAVKVSMDWLRLRPRVFQEAVVDERQYIWPWLISLLNSFHPREDDLSNTNATPLPEEFELQGFLALRPSFRNLDFSKGHQGITGDKEGQQRRIRQQRLISIGKWIADNQPRLIQCENEVGKLLFITEIPELILEDPSEAKENLILQETSVVESLATDGSPGLKSVLSTGRNPSNSCDSGEKPVVTFKENIKPREVNQGRSFPPKEVKSQTELRKTPVSEARKTPVTQTPSQTSNSQFIPIHHPGAFPPLPSRPGFPPPTYVIPPPVAFSMGSGYTFPAGVSVPGTFLQSTAHSPAGNQVQAGKQSHIPYSQQRPSGPGPMNQGPQQSQPPSQPPLTSLPAQPTAQSTSQLQVQALAQQQQSPTKVIPALGKSPPHHSGFQQYQQADASKQLWNPPQVQSPLGKIMPVKQSYYLQTQDPIKLFEPSLQPPVIQQQPLEKKMKPFPMEPYNHNPSEVKVPEFYWDSSYSMADNRAVMAQQPNMDRRSKRSPGVFRPEQDPVPRMPFEDPKSSPLLPPDLLKSLAALEEEEELIFSNPPDLYPALLGPLASLPGRSLFKSLLEKPSELMSHSSSFLSLTGFSVNQERYPNSSMFNEVYGKNLTTSSKAELNPSVASQETSLYSLFEGTPWSPSLPASSDHSTPASQSPHSSNPSSLPSSPPTHNHNSAPFSNFGPIGTPDNRDRRPADRWKTDKPAMGGFGVDYLSATSSSESSWHQASTPSGTWTGHGPSMEDSSAVLMESLKSIWSSSMMHPGPSALEQLLMQQKQKQQRGQGAMNPPH	binds	binds
WDR59 (protein, UniProt Q8C0M0 1-992) MAARWSSENVVVEFRDSQATAMSVDCLGQHAVLSGRRFLYIVNLDAPFEGHRKISRQSKWDIGAVQWNPHDSFAHYFAASSNQRVDLYKWKDGSGEVGTTLQGHTRVISDLDWAVFEPDLLVTSSVDTYIYIWDIKDTRKPTVALSAVAGASQVKWNKKNANYLATSHDGDVRIWDKRKPSTAVEYLAAHLSKIHGLDWHPDSEHIFATSSQDNSVKFWDYRQPRKYLNILPCQVPVWKARYTPFSNGLVTVMVPQLRRENSLLLWNASDLNAPVHTFVGHDDVVLEFQWRRQKEGSKDYQLVTWSRDQTLRMWRVDYQMQRLCANDILDGVDEFIESISLLPEPEKTPHPQDIDHQPSLSHGEEDAIKEDPPSSLLEEKRSDQLGLPQTLQQEFSLINVQIRNVNVEMDAADRSCTVSVHCSNHRVKMLVTFPAQYPNNAAPSFQFINPTTITSAVKAKLLKILKDTSLQKVKRNQSCLEPCLRQLVSCLESFVNQEDSASSNPFALQNSVTPPLPTFARVTTAYGSYQDANIPFPRTSGARFCGAGYLVYFTRPMTMHRAVSPTEPTPRSLSALSAYHTGLIAPMKIRTEAPGNLRLYSGSPTRSEKEQVSISSFYYKERKSRRWKSKREGSDSGNRPIKAAGKVIIQDVSCLLPVHKSLGELYILNVNDTQETCQKNATSAMLVGRKDLVQVWSLATVATDLCLGPKSDPDLETPWARHPFGRQLLESLWGDRESTRVCGPPLSGARLAHYCQLRDVQTLAMLCSVFEAQSRPQGLPNPFGPFPNRSSNLVVSHSRYPSFTSSGSCSSMSDPGFNTGGWNIAGRETEHISSPWGESSPEELRFGSLTYSDPRERERDQHDKNKRLLDPANTQQFDDFKKCYGEILYRWGLREKRAEVLKFVSCPPDPHKGIEFGVYCSHCRSEVRGTQCAICKGFTFQCAICHVAVRGSSNFCLTCGHGGHTSHMMEWFRTQEVCPTGCGCHCLLESTF	binds	binds
MIOS (protein, UniProt Q8VE19 1-875) MSGTKPDILWAPHQVDRFVVCDSELSLYHVESAVNSELKAGSLRLSEDSAATLLSINSDTPYMKCVAWYLNYDPECLLAVGQANGRVVLTSLGQDHNSKFKDLIGKEFVPKHARQCNTLAWNPLDSNWLAAGLDKHRADFSVLIWDICSKYTPDIVPMEKVRLSAGEAETTLLVTKPLYELGQNDASLSLCWLPRDQKLLLAGMHRNLAIFDLRNTSQKMFVNTKAVQGVTVDPYFHDRVASFYEGQVAIWDLRKFEKPVLTLTEQPKPLTKVAWCPTRTGLLATLTRDSNIIRLYDMQHTPTPIGDETEPTIIERSVQPCDNYIASFAWHPTSQNRMIVVTPNRTMSDFTVFERISLAWSPITSLMWACGRHLYECAEEESDNSLEKDIATKMRLRALSRYGLDTEQVWRNHILAGNEDPQLKSLWYTLHFMKQYTEDNDQKSPGNKGSLVYAGIKSIVKSSLGMVESSRHNWSGLDKQTDIQNLNEERILALQLCGWIKKGTDVDVGPFLNSLVQEGEWERAAAVALFNLDIRRAIQILNEGASSEKGDLNLNVVAMALSGYTDEKNSLWREMCSTLRLQLNNPYLCVMFAFLTSEAGAYDGVLYENKVAVRDRVAFACKFLGDAQLNKYIEKLTNEMKEAGNLEGILLTGLTKDGVDLMESYVDRTGDVQTASYCMLQGSPLDVLKDERVQYWIENYRNLLDAWRFWHKRAEFDIHRSKLDPSSKPLAQVFVSCNFCGKSISYSCSSVPHQGRGFSQYGVSGSPTKSKVTSCPGCRKPLPRCALCLINMGTPVSSCPGGSKSDEKVDLSKDKKLAQFNNWFTWCHNCRHGGHAGHMLSWFRDHAECPVSACTCKCMQLDTTGNLVPAETVQP	no binding	binds

These are yes or no findings as the source states them, for the method shown. In cells and extracts the contact can be indirect. These calls come from enrichment with a bait or labelling near it, and not all partners need be listed. For part of these data: A no says only that the protein was not detected with the bait.
